Assay results published in the supplement of paper PMC8728848.
Some of the results follow.

What was measured:
Test in all cases: glycan array binding signal (z-score within array); higher = stronger binding
Details in all cases: glycan notation: IUPAC condensed, linker removed
[1] = target: Man(a1-2)Man(a1-3)[Man(a1-2)Man(a1-6)]Man(a1-6)[Man(a1-2)Man(a1-2)Man(a1-3)]Man
Procedure, shortened: (§1)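 Glycan array binding is given as a within-array Z-score, which can be read as non-binding when negative. The arrays, 3228 of them, came from the Consortium for Functional Glycomics database and were retained only where the protein sequence was available. Z-scores were averaged across arrays of the same protein sequence at different concentrations or buffers and across linkers.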

[2] = target: Man(a1-2)Man(a1-3)[Man(a1-2)Man(a1-6)]Man(a1-6)[Man(a1-2)Man(a1-2)Man(a1-3)]Man(b1-4)GlcNAc(b1-4)GlcNAc
Procedure, shortened: as §1

[3] = target: Man(a1-2)Man(a1-3)[Man(a1-6)]Man(a1-6)[Man(a1-2)Man(a1-3)]Man(b1-4)GlcNAc(b1-4)GlcNAc
Procedure, shortened: as §1

[4] = target: Man(a1-2)Man(a1-6)[Man(a1-3)]Man(a1-6)[Man(a1-2)Man(a1-2)Man(a1-3)]Man
Procedure, shortened: as §1

[5] = target: Man(a1-2)Man(a1-6)[Man(a1-3)]Man(a1-6)[Man(a1-2)Man(a1-2)Man(a1-3)]Man(b1-4)GlcNAc(b1-4)GlcNAc
Procedure, shortened: as §1

Man(a1-3)[Man(a1-6)]Man = target: Man(a1-3)[Man(a1-6)]Man
Procedure, shortened: as §1

[6] = target: Man(a1-3)[Man(a1-6)]Man(a1-6)[Man(a1-2)Man(a1-3)]Man(b1-4)GlcNAc(b1-4)GlcNAc
Procedure, shortened: as §1

[7] = target: Man(a1-3)[Man(a1-6)]Man(a1-6)[Man(a1-3)]Man
Procedure, shortened: as §1

[8] = target: Man(a1-3)[Man(a1-6)]Man(a1-6)[Man(a1-3)]Man(b1-4)GlcNAc(b1-4)GlcNAc
Procedure, shortened: as §1

[9] = target: Man(a1-3)[Man(a1-6)]Man(b1-4)GlcNAc(b1-4)GlcNAc
Procedure, shortened: as §1

[10] = target: Man(a1-3)[Man(a1-6)]Man(b1-4)GlcNAc(b1-4)[Fuc(a1-6)]GlcNAc
Procedure, shortened: as §1

Man(a1-6)Man = target: Man(a1-6)Man
Procedure, shortened: as §1

Man(b1-4)GlcNAc = target: Man(b1-4)GlcNAc
Procedure, shortened: as §1

MurNAc(b1-4)GlcNAc = target: MurNAc(b1-4)GlcNAc
Procedure, shortened: as §1

Neu5Ac(a2-3)Gal = target: Neu5Ac(a2-3)Gal
Procedure, shortened: as §1

[11] = target: Neu5Ac(a2-3)Gal(b1-3)GalNAc
Procedure, shortened: as §1

[12] = target: Neu5Ac(a2-3)Gal(b1-3)GalNAc(b1-3)Gal(a1-4)Gal(b1-4)Glc
Procedure, shortened: as §1

[13] = target: Neu5Ac(a2-3)Gal(b1-3)GalNAc(b1-4)Gal(b1-4)Glc
Procedure, shortened: as §1

[14] = target: Neu5Ac(a2-3)Gal(b1-3)GalNAc(b1-4)[Neu5Ac(a2-3)]Gal(b1-4)Glc
Procedure, shortened: as §1

[15] = target: Neu5Ac(a2-3)Gal(b1-3)GalNAc(b1-4)[Neu5Ac(a2-8)Neu5Ac(a2-3)]Gal(b1-4)Glc
Procedure, shortened: as §1

[16] = target: Neu5Ac(a2-3)Gal(b1-3)GalNAc6S
Procedure, shortened: as §1

[17] = target: Neu5Ac(a2-3)Gal(b1-3)GlcNAc
Procedure, shortened: as §1

[18] = target: Neu5Ac(a2-3)Gal(b1-3)GlcNAc(b1-2)Man
Procedure, shortened: as §1

[19] = target: Neu5Ac(a2-3)Gal(b1-3)GlcNAc(b1-2)Man(a1-3)[GlcNAc(b1-4)][Neu5Ac(a2-3)Gal(b1-3)GlcNAc(b1-2)Man(a1-6)]Man(b1-4)GlcNAc(b1-4)GlcNAc
Procedure, shortened: as §1

[20] = target: Neu5Ac(a2-3)Gal(b1-3)GlcNAc(b1-2)Man(a1-3)[Neu5Ac(a2-3)Gal(b1-3)GlcNAc(b1-2)Man(a1-6)]Man(b1-4)GlcNAc(b1-4)GlcNAc
Procedure, shortened: as §1

[21] = target: Neu5Ac(a2-3)Gal(b1-3)GlcNAc(b1-2)[Neu5Ac(a2-3)Gal(b1-3)GlcNAc(b1-4)]Man(a1-6)[Neu5Ac(a2-3)Gal(b1-3)GlcNAc(b1-2)Man(a1-3)]Man(b1-4)GlcNAc(b1-4)GlcNAc
Procedure, shortened: as §1

[22] = target: Neu5Ac(a2-3)Gal(b1-3)GlcNAc(b1-3)Gal(b1-3)GlcNAc
Procedure, shortened: as §1

[23] = target: Neu5Ac(a2-3)Gal(b1-3)GlcNAc(b1-3)Gal(b1-4)GlcNAc
Procedure, shortened: as §1

[24] = target: Neu5Ac(a2-3)Gal(b1-3)GlcNAc(b1-3)GalNAc
Procedure, shortened: as §1

[25] = target: Neu5Ac(a2-3)Gal(b1-3)GlcNAc(b1-6)GalNAc
Procedure, shortened: as §1

[26] = target: Neu5Ac(a2-3)Gal(b1-3)GlcNAc6S
Procedure, shortened: as §1

[27] = target: Neu5Ac(a2-3)Gal(b1-3)[Fuc(a1-4)]GlcNAc
Procedure, shortened: as §1

[28] = target: Neu5Ac(a2-3)Gal(b1-3)[Fuc(a1-4)]GlcNAc(b1-3)Gal(b1-3)[Fuc(a1-4)]GlcNAc
Procedure, shortened: as §1

[29] = target: Neu5Ac(a2-3)Gal(b1-3)[Fuc(a1-4)]GlcNAc(b1-3)Gal(b1-4)[Fuc(a1-3)]GlcNAc
Procedure, shortened: as §1

[30] = target: Neu5Ac(a2-3)Gal(b1-3)[GlcNAc(b1-6)]GalNAc
Procedure, shortened: as §1

[31] = target: Neu5Ac(a2-3)Gal(b1-3)[Neu5Ac(a2-6)]GalNAc
Procedure, shortened: as §1

[32] = target: Neu5Ac(a2-3)Gal(b1-3)[Neu5Ac(a2-6)]GlcNAc(b1-3)[Fuc(a1-3)[Gal(b1-4)]GlcNAc(b1-6)]Gal(b1-4)Glc
Procedure, shortened: as §1

B1: Mnn9-2N3 (Aspergillus fumigatus) (protein)
chain: MAVARRMRRTNPITLLLAAILAIGFFIFVLSPSTTSASPVKAGSASSSSTSQQRREDNAAENPLSPPTKPFFKSQPVRHDGQQAPPPVVQYNLNQLSSTSTSAANGERILILTPMARFVPEYWDNVVKLTYPHELISIGFIIPKNKEGNAALAALEAAIAKTQSGPIDKRFASISILRQDFEPPLQSQDEKERHKISNQKARRESMSRARNSLLFTTLGPATAWVLWLDADIVETPPTLIQDLTAHDHPVLVPNCYQRYYNSEKKKMDVRPYDYNSWIDSSTAQSMAAEMGPDEILLEGYAEMPTYRTLMAHLADTANPNPKKVIELDGVGGTALMVKAEVHRDGAMFPAFPFYHLVETEGFAKMAKRLGYSVYGLPDYFVSRNFFFFFFFFFFG
glycan array binding signal (z-score) [1]: -0.138 | glycan array binding signal (z-score) [2]: -0.558 | glycan array binding signal (z-score) [3]: 0.461 | glycan array binding signal (z-score) [4]: -0.105 | glycan array binding signal (z-score) [5]: -0.789 | glycan array binding signal (z-score) (Man(a1-3)[Man(a1-6)]Man): -0.193 | glycan array binding signal (z-score) [6]: -0.909 | glycan array binding signal (z-score) [7]: -0.366 | glycan array binding signal (z-score) [8]: -0.772 | glycan array binding signal (z-score) [9]: 1.38 | glycan array binding signal (z-score) [10]: 1.45 | glycan array binding signal (z-score) (Man(a1-6)Man): -0.653 | glycan array binding signal (z-score) (Man(b1-4)GlcNAc): -0.466 | glycan array binding signal (z-score) (MurNAc(b1-4)GlcNAc): -0.221 | glycan array binding signal (z-score) (Neu5Ac(a2-3)Gal): 0.285 | glycan array binding signal (z-score) [11]: 0.224 | glycan array binding signal (z-score) [12]: 0.073 | glycan array binding signal (z-score) [13]: 0.754 | glycan array binding signal (z-score) [14]: -0.093 | glycan array binding signal (z-score) [15]: -0.461 | glycan array binding signal (z-score) [16]: 2.97 | glycan array binding signal (z-score) [17]: -0.717 | glycan array binding signal (z-score) [18]: -0.11 | glycan array binding signal (z-score) [19]: -0.106 | glycan array binding signal (z-score) [20]: 2.36 | glycan array binding signal (z-score) [21]: 1.94 | glycan array binding signal (z-score) [22]: -0.229 | glycan array binding signal (z-score) [23]: 0.065 | glycan array binding signal (z-score) [24]: -0.456 | glycan array binding signal (z-score) [25]: -0.673 | glycan array binding signal (z-score) [26]: -0.204 | glycan array binding signal (z-score) [27]: 0.364 | glycan array binding signal (z-score) [28]: 0.057 | glycan array binding signal (z-score) [29]: 0.089 | glycan array binding signal (z-score) [30]: -0.425 | glycan array binding signal (z-score) [31]: 2.13 | glycan array binding signal (z-score) [32]: -0.453
